Results taken from PubChem BioAssay AID652054 (National Center for Advancing Translational Sciences (NCATS), 2013).
Screen size: about 360,000 compounds; about 9,100 (2.5%) were called active. Inconclusive means that the source gave no clear call. Such entries were picked first, then a sample of the others. Cut-off read from the data, not from the text of the source: active = max response below about -50%; inconclusive = no clear call, values can overlap the other calls; inactive = above that.

Amino acid sequences for entries named in this document (tags omitted).
UniProt P35462, whole entry, looked up: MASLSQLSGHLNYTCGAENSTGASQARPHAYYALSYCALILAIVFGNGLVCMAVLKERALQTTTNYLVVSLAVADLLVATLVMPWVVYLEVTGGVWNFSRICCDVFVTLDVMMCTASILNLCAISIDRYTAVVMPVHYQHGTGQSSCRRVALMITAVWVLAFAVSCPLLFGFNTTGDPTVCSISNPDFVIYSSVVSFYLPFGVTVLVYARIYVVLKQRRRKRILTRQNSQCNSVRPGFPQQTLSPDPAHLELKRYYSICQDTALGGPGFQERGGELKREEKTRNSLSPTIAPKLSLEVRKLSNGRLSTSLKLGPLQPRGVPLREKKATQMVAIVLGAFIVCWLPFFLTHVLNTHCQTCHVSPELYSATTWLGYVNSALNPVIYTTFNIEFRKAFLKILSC

Target: D(3) dopamine receptor (Homo sapiens) (UniProt P35462)
Assay: qHTS of D3 Dopamine Receptor Antagonist: qHTS
Settings: D3R cells, DiscoveRx beta-arrestin luminescence, antagonist mode; hits give low values
Summary of the method: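 Cells expressing the human receptor were seeded at 1500 cells/well, incubated overnight at 37 degrees C in 5% CO2, then exposed to library compounds with dopamine controls for 90 minutes at 37 degrees C before luminescent detection.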
% is set by controls: 0 for no effect and ±100 for the full control effect.

Compound	max response, negative = inhibition
COC(=O)c1ccc(CN2CCCC(C(=O)c3ccccc3OC)C2)cc1 (stereo unspecified)	active: -51.3%
CC(C)[C@H](NC(=O)c1ccccc1)C(=O)OCC(=O)/C=C1/N(C)c2ccccc2C1(C)C	inactive: 40.5%
CCOC(=O)c1cn2nc(Oc3cccc(C(F)(F)F)c3)ccc2n1	inactive: -8.37%
COc1ccc(C2OC(=O)CC2C(=O)NCc2ccc(F)cc2)cc1OC (stereo unspecified)	inconclusive: -30.5%
Cc1sc2ncnc(SCC(=O)NC(=O)NCc3ccco3)c2c1C	inconclusive: -44.2%
CC1CCC2=NN(C(=O)c3ccco3)C(O)(C(F)(F)F)C2C1 (stereo unspecified)	inactive: 1.05%
Cc1nn(C)c(C(=O)NNC(=S)NCc2ccco2)c1Cl	inconclusive: -30.6%
COc1cc(CN2CCC(C(=O)NC(c3ccccc3)c3ccsc3)CC2)cc(OC)c1 (stereo unspecified)	inconclusive: -47.9%
O=C(CS(=O)(=O)Cc1ccccc1)N1CCc2ccccc2C1	inconclusive: -42.5%
Cc1nc2n[nH]c(N)c2c2c1COC(C)(C)C2	inconclusive: -39.4%
COc1cc(/C=C2/N=C(C3CCCCC3)OC2=O)cc(OC)c1OC	active: -68.6%
O=C(Nc1cccc(OC(F)(F)F)c1)C1Cc2c(-c3ccccc3Oc3ccccc3)ccnc2O1 (stereo unspecified)	inactive: 5.64%
Cc1ccccc1NC(=O)N1C2CCC1CC(O)(c1cccnc1)C2 (stereo unspecified)	inactive: 16.8%
Cc1cccc(Oc2nc3ccccn3c(=O)c2/C=C(\C#N)C(=O)NC2CCS(=O)(=O)C2)c1 (stereo unspecified)	inactive: 13.4%
C[C@H](NC(=O)c1ccccc1)C(=O)N1CCC2(CC1)NCCc1[nH]cnc12	inactive: 5.15%
CC1(C(=O)NCCc2ccccc2)Cc2c(-c3cccc(C(F)(F)F)c3)ccnc2O1 (stereo unspecified)	inconclusive: -40.2%
O=C(O)c1cccc(NC2=C(Cl)C(=O)c3ccccc3C2=O)c1	active: -90.3%
O=C(c1cc2ccccc2oc1=O)N1CCSC1c1ccco1 (stereo unspecified)	inconclusive: -39.8%
CC(OC(=O)Cn1cc(C(F)(F)F)ccc1=O)C(=O)N(C)c1ccccc1 (stereo unspecified)	inactive: -8.84%

Compound	max response, negative = inhibition
COc1ccc(NC(=O)c2cc(C3CCCCN3C(=O)C3CC3)on2)c(C)c1 (stereo unspecified)	active: -111%
O=c1c2ccccc2nc(SCc2nc(-c3ccccc3)no2)n1-c1ccc(F)cc1	inconclusive: -30.9%
COc1ccc(C(CCN2CCCC(C)C2)c2c(OC)cc(OC)c3c2OC(=O)CC3c2cc(OC)c(OC)c(OC)c2)cc1 (stereo unspecified)	inconclusive: -35.3%
O=C(Nc1ccc(Cl)c([N+](=O)[O-])c1)c1ccncc1	inconclusive: -32.2%
COc1ccc(NC(=O)c2sc(=S)[nH]c2N)cc1	inconclusive: -48.1%
CC1(C)CC(=O)C2=C(C1)OC(N)=C(C#N)C2CCc1ccccc1 (stereo unspecified)	inconclusive: -32%
CC1CCCN(C(=O)c2ccc(S(=O)(=O)Nc3ccccc3Cl)cc2)C1 (stereo unspecified)	inactive: 0.115%
O=C(CN1C2=NCCN2c2ccccc21)c1ccc(Br)cc1	inconclusive: -35.9%
O=C(CSc1nnc(-c2cccnc2)n1Cc1ccccc1)NCc1ccccc1	inconclusive: -45.5%
O[Si](CCCN1CCCCC1)(c1ccc(F)cc1)C1CCCCC1 (stereo unspecified)	active: -110%
CCN1CCN(CCNC(=O)c2ccc3c(c2)NC(=O)/C(=C\c2cccc(Cl)c2)S3)CC1	inconclusive: -39.3%
O=C(/C=C/c1ccco1)N1CCN(S(=O)(=O)c2cccc([N+](=O)[O-])c2)CC1	inactive: -16.8%
c1ccc(-c2nn3c(C4CCCCC4)nnc3s2)cc1	inactive: 8.53%
O=C(CN1N=C(c2ccccc2)CCC1=O)NCCCN1CCc2ccccc2C1	inconclusive: -40.9%
O=c1c2sc3nc(N4CCOCC4)c4c(c3c2ncn1CCc1ccccc1)CCCC4	inactive: 18.6%
COc1cc(-c2nnc(COC(=O)C3c4ccccc4Oc4ccccc43)o2)cc(OC)c1OC	inactive: 52.4%
CCc1nn(C(CC)C(=O)NCCCN2CC(C)CC(C)C2)c(=O)c2cc3oc(C)cc3n12 (stereo unspecified)	active: -57.5%
CC(=O)c1ccc2cc3c(cc2c1)OCO3	inactive: 9.14%
N#Cc1c(N)sc2c1CCN(CCc1ccccc1)C2	inconclusive: -38%

Given comma-delimited: part of the list above
Compound,"max response, negative = inhibition"
O=c1c2sc3nc(N4CCOCC4)c4c(c3c2ncn1CCc1ccccc1)CCCC4,inactive: 18.6%
COc1cc(-c2nnc(COC(=O)C3c4ccccc4Oc4ccccc43)o2)cc(OC)c1OC,inactive: 52.4%

More compounds

Compound	max response, negative = inhibition
C=CC[C@@H](CC(=O)OC(C)(C)C)C(=O)OC[C@H]1CCCN1C(=O)[C@@H](CC=C)CC(=O)N(CCO)Cc1ccccc1	inconclusive: -31.1%
COC(=O)c1ccc2nc(-c3ccco3)c(Cc3ccc(C)cc3)n2c1	inconclusive: -31.3%
OCCCn1c(CCNc2nc(-c3ccc(F)cc3)cs2)nc2cc(C(F)(F)F)ccc21	inactive: 5.57%
COc1ccccc1C(=O)N/C(=C\c1ccc(Br)cc1)C(=O)NCCO	inconclusive: -34.6%
O=C(Nc1ccc([N+](=O)[O-])cc1)C(c1ccccc1)c1ccccc1	inconclusive: -41.2%
Cc1cc(NCc2ccccc2)nc(N2CCOCC2)n1	inactive: 27.6%
CCc1cccc(C)c1NC(=S)NCCc1c(C)[nH]c2ccc(C)cc12	inactive: -14.8%
Clc1ccccc1Nc1nc(-c2ccncc2)nc2ccccc12	inactive: 8.58%
CN(C)c1ccc(CN2CCCCCC2)cc1	inconclusive: -38.1%
CC1CC(N(C(=O)c2ccco2)c2ccccc2)c2ccccc2N1 (stereo unspecified)	active: -58%
Cc1cc(C)cc(C(=O)N2CC(C)OC(C)C2)c1 (stereo unspecified)	inconclusive: -39.1%
COc1ccc(Cl)cc1NC(=O)NCC1CCN(Cc2cc(C)ccc2C)CC1	active: -84.9%
CC1CCCN(CC(=O)Nc2ccc(S(=O)(=O)NC3CCCCC3)cc2)C1 (stereo unspecified)	inconclusive: -31.6%
Cc1cccc(Cc2cnc(NC(=O)c3ccc(C)o3)s2)c1	inactive: 12.1%
CCCCn1c(N)c(N(CC(C)C)C(=O)C2=NN(c3cc(C)ccc3C)C(=O)CC2)c(=O)[nH]c1=O	inconclusive: -34.7%
COc1ccc(OC)c(S(=O)(=O)NCC(c2ccco2)N2CCc3ccccc3C2)c1 (stereo unspecified)	inconclusive: -31.6%
O=C1Cc2ccccc2C(=O)N1	inconclusive: -38.5%
O=S(=O)(c1ccc2ccccc2c1)N1CCc2ccccc21	inactive: -3.38%
